# Measured values as given in the supplement of paper PMC9135407.
# “And” between values parts separate entries of the source, which are not always exact repeats. Equal entries are not always repeated. Structures can show the parent of a compound that is named as a salt. ± gives the standard deviation of the averaged measurements. This is one part of the list. Part of the spread comes from offsets between plates or batches.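 Primary human stellate myofibroblasts activated in culture; inactivation shown by regained lipid droplets. Readout: fraction of Hoechst-counted cells exceeding a per-plate Bodipy threshold, duplicate wells, each plate with DMSO negative and nortriptyline positive controls. Hits: control-normalized score beyond the plate's top-tenth-percentile nortriptyline wells, or among its three best wells. Final well concentrations unstated.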
# Test system: primary human hepatic stellate cells (donor 1)
# Assay: percent Bodipy-positive cells; higher = more lipid droplet accumulation
# Conditions: 48 h
# [1] = library stock concentration: 3.33 mM
# [2] = library stock concentration: 10 mM
# [3] = library stock concentration: 1 mM
# [4] = library stock concentration: 4.9 mM
structure (smiles),measurement,setting,value
CCCCOc1ccc(C(=O)CCN2CCCCC2)cc1 [Dyclonine HCl],percent Bodipy-positive cells,[1],8.379 ± 0.019%
same,percent Bodipy-positive cells,[2],22.8 ± 12%
CCCCOc1ccc(C(=O)CCN2CCCCC2)cc1 [Dyclonine hydrochloride],percent Bodipy-positive cells,,35.5 ± 4.1%
same,percent Bodipy-positive cells,library stock concentration: 6.1 mM,5.29 ± 0.96%
same,percent Bodipy-positive cells,[2],11.7 ± 3.6%
O=C(O)COc1ccc(C(=O)c2cccs2)c(Cl)c1Cl [Tienilic Acid],percent Bodipy-positive cells,[3],9.1 ± 2.5%
C=C1C(=O)O[C@H]2[C@H]1CC/C(C)=C/CC[C@@]1(C)O[C@@H]21 [Parthenolide],percent Bodipy-positive cells,,100%
same,percent Bodipy-positive cells,library stock concentration: 20.1 mM,97.9 ± 3%
C=C1C(=O)O[C@H]2[C@H]1CC/C(C)=C/CC[C@@]1(C)O[C@@H]21 [(-)-Parthenolide],percent Bodipy-positive cells,[1],22 ± 3.3%
same,percent Bodipy-positive cells,[2],98.5 ± 2%
COc1ccc(-c2cc3nccn3c(Nc3ncccc3C(N)=O)n2)cc1OC,percent Bodipy-positive cells,library stock concentration: 80 uM,22 ± 1.8%
same,percent Bodipy-positive cells,library stock concentration: 400 uM,22.7 ± 13%
same,percent Bodipy-positive cells,library stock concentration: 2 mM,35.2 ± 12%
same,percent Bodipy-positive cells,[2],43.1 ± 4.6%
Cc1cc2c(C(=O)NCC(C)c3ccccc3)c(O)c(O)cc2c(O)c1-c1c(C)cc2c(C(=O)NCC(C)c3ccccc3)c(O)c(O)cc2c1O (stereo unspecified) [Sabutoclax],percent Bodipy-positive cells,[1],87 ± 2.5%
same,percent Bodipy-positive cells,[2],75.6 ± 7.8%
COc1ccc(CCn2nnnc2C2(c3ccc(C)cc3)CC2)cc1 [Mephetyl tetrazole],percent Bodipy-positive cells,[2],41.8 ± 17%
COc1ccc(CCC(=O)Nc2nc3ccc(Cl)cc3s2)cc1OC,percent Bodipy-positive cells,[1],40 ± 14%
same,percent Bodipy-positive cells,[2],27.2 ± 3.5%
CC[C@H](C)C(=O)O[C@H]1C[C@H](O)C=C2C=C[C@H](C)[C@H](CC[C@@H]3C[C@@H](O)CC(=O)O3)[C@H]21 [Pravastatin lactone],percent Bodipy-positive cells,[4],10.3 ± 2.8%
Nc1nc(N)c2nc(-c3ccccc3)c(N)nc2n1 [Triamterene],percent Bodipy-positive cells,,25.3 ± 1.3%
same,percent Bodipy-positive cells,[1],12.3 ± 1.6%
same,percent Bodipy-positive cells,library stock concentration: 7.9 mM,26.6 ± 9.1%
same,percent Bodipy-positive cells,[2],32.5% and 24.8% and 35.7%
C=C1CC[C@H](O)C/C1=C/C=C1\CCC[C@]2(C)[C@@H]([C@H](C)/C=C/[C@H](C)C(C)C)CC[C@@H]12 [Vitamin D2],percent Bodipy-positive cells,[1],5.47 ± 1.1%
same,percent Bodipy-positive cells,[2],89.7 ± 1.4%
C=C1CC[C@H](O)C/C1=C/C=C1\CCC[C@]2(C)[C@@H]([C@H](C)/C=C/[C@H](C)C(C)C)CC[C@@H]12 [Calciferol],percent Bodipy-positive cells,,15.5 ± 0.49%
C=C1CC[C@H](O)C/C1=C/C=C1\CCC[C@]2(C)[C@@H]([C@H](C)/C=C/[C@H](C)C(C)C)CC[C@@H]12 [Ergocalciferol],percent Bodipy-positive cells,library stock concentration: 5 mM,3.68 ± 0.43%
same,percent Bodipy-positive cells,[2],7.65 ± 0.096%
Cc1ccc(C(=O)Cn2c3c(sc2=N)CCCC3)cc1 [Pifithrin-.alpha.],percent Bodipy-positive cells,[3],10.6 ± 1.8%
CCCCCC=CCC=CCCCCCCCC(=O)OC(COC(=O)CCCCCCCCCCCCCCC)COP(=O)(O)OCCN (stereo unspecified) [1-Palmitoyl-2-linoleoyl PE],percent Bodipy-positive cells,[3],8.73 ± 0.15%
CC(C)(C)NC(=O)[C@H]1CC[C@H]2[C@@H]3CC[C@H]4NC(=O)C=C[C@]4(C)[C@H]3CC[C@]12C,percent Bodipy-positive cells,[2],13.5 ± 1.2%
CC(C)(C)NC(=O)[C@H]1CC[C@H]2[C@@H]3CC[C@H]4NC(=O)C=C[C@]4(C)[C@H]3CC[C@]12C [Finasteride],percent Bodipy-positive cells,,10.2 ± 1.8%
same,percent Bodipy-positive cells,[1],22.6 ± 7.2%
same,percent Bodipy-positive cells,library stock concentration: 5.4 mM,6.75% and 3.46%
same,percent Bodipy-positive cells,[2],10.4 ± 0.87%
C=CC[N+]1([C@H]2C[C@H]3[C@@H]4CC[C@H]5C[C@H](O)[C@@H](N6CCOCC6)C[C@]5(C)[C@H]4CC[C@]3(C)[C@H]2OC(C)=O)CCCC1 [Rocuronium Bromide],percent Bodipy-positive cells,[1],9.91 ± 0.13%
same,percent Bodipy-positive cells,[2],17.1 ± 5.3%
Cc1ccc(C(=O)N(CCCN)[C@@H](c2oc3cc(Cl)ccc3c(=O)c2Cc2ccccc2)C(C)C)cc1,percent Bodipy-positive cells,[1],57.9 ± 6.5%
same,percent Bodipy-positive cells,[2],100%
C[N+](C)(C)C[C@H](O)CC(=O)[O-] [Levocarnitine],percent Bodipy-positive cells,library stock concentration: 12.4 mM,13.2 ± 8.5%
Cn1cnc(=N)c2[nH]cnc21 [3-Methyladenine],percent Bodipy-positive cells,[1],11.1 ± 2.7%
same,percent Bodipy-positive cells,[2],12.3 ± 2.7%
"CCCCCC#CCC#CCC#CCCCCCCC(=O)O [8,11,14-Eicosatriynoic Acid]",percent Bodipy-positive cells,[3],10.4 ± 2.7%
O=c1c2ccccc2nc2n1CCc1c-2[nH]c2ccccc12 [Rutaecarpine],percent Bodipy-positive cells,[2],91.1 ± 2.2%
C[C@H]1[C@H]2CC[C@H]3[C@@H]4CC=C5C[C@@H](N(C)C)CC[C@]5(C)[C@H]4CC[C@]23CN1C [Conessine],percent Bodipy-positive cells,,54.4 ± 12%
"Nc1ncnc2c1ncn2[C@@H]1O[C@@H]2COP(=O)(O)O[C@H]2[C@H]1O [Adenosine 3',5'-cyclic monophosphate]",percent Bodipy-positive cells,[2],56.8 ± 1%
C[N+](C)(C)CC(O)CC(=O)[O-] (racemic) [DL-Carnitine HCl],percent Bodipy-positive cells,[1],7.44 ± 3.5%
same,percent Bodipy-positive cells,[2],12.5 ± 8.6%
CC(C)C(=O)c1c(C(C)C)nn2ccccc12 [Ibudilast],percent Bodipy-positive cells,library stock concentration: 8.7 mM,9.19 ± 2.3%
COP(=O)(OC)OC(c1ccc(Cl)cc1)P(=O)(OC)OC (stereo unspecified),percent Bodipy-positive cells,[2],6.75 ± 1.4%
CC(CN(C)C)CN1c2ccccc2CCc2ccccc21 (stereo unspecified) [Trimipramine maleate],percent Bodipy-positive cells,[4],78.6 ± 2.1%
same,percent Bodipy-positive cells,[2],79.3 ± 4.3%
CC(CN(C)C)CN1c2ccccc2CCc2ccccc21 (stereo unspecified) [Trimipramine maleate salt],percent Bodipy-positive cells,,35.8 ± 1.1%
Cn1c(N2CCCCS2(=O)=O)nc(C(=O)NCc2ccc(F)cc2)c(O)c1=O,percent Bodipy-positive cells,[1],5.62 ± 2.6%
same,percent Bodipy-positive cells,[2],12.2 ± 1.7%

# Part of the list above, bar-delimited:
structure (smiles) | measurement | setting | value
CCCCCC=CCC=CCCCCCCCC(=O)OC(COC(=O)CCCCCCCCCCCCCCC)COP(=O)(O)OCCN (stereo unspecified) [1-Palmitoyl-2-linoleoyl PE] | percent Bodipy-positive cells | [3] | 8.73 ± 0.15%
CC(C)(C)NC(=O)[C@H]1CC[C@H]2[C@@H]3CC[C@H]4NC(=O)C=C[C@]4(C)[C@H]3CC[C@]12C [Finasteride] | percent Bodipy-positive cells | [2] | 10.4 ± 0.87%
Cn1cnc(=N)c2[nH]cnc21 [3-Methyladenine] | percent Bodipy-positive cells | [2] | 12.3 ± 2.7%
